Test results taken from patent US20090221680.
For some of these results: A negative result means that nothing was seen under these conditions.

Tested on: thrombin (endogenous, clotting assay in plasma or whole blood) (Homo sapiens)
Assay: inhibition of the protein
Details: PT at 10 uM aptamer, baseline ~13 s; protein in an extract; single-stranded DNA

Sequence | functional effect of the aptamer
TCCCATCGATCTGGGGTAATTTACTGGGTCGGGTGGCTGAGGATCGATC [AMX(453)_A6] | 12.8 s

Same assay, conditions: PT at 10 uM, no prolongation (background about 13 s); protein in an extract; single-stranded DNA

Sequence | functional effect of the aptamer
TCCCGTAATCGAGCCTGGTATTGTTGGTCTGGGTGGCTGAGGATCGATC [AMX(398)_A4] | 11 s

Same assay, conditions: PT at 10 uM, no prolongation; clone printed as C9 for SEQ 138; protein in an extract; single-stranded DNA

Sequence | functional effect of the aptamer
TCCCGTCGATCAGGGGTAATTTGCTGGTGGTGGGTGGCTGAGGATCGATC [AMX(399)_C8] | 10.7 s

Same assay, conditions: PT at 10 uM, no prolongation; protein in an extract; single-stranded DNA

Sequence | functional effect of the aptamer
TCCCAACGATCTGTGGTTTTTTTGTTCTGGGTGGCTGAGGATCGATC [AMX(398)_C1] | 11.4 s
TCCCAATCGGTCCTGGTAATATATTGGTCGGGGTGGCTGAGGATCGATC [AMX(399)_H3] | 10.9 s
TCCCACGATCCGGGGTGTCTTTCGTGGGCTGGGTGGCTGAGGATCGATC [AMX(399)_E1] | 10.8 s
TCCCAGAGAGCCGGGGTATAATTGTGGTGTGGGTGGCTGAGGATCGATC [AMX(399)_D11] | 13.2 s
TCCCATCGATCAGTGGTGGCTTGGCTGGTTTGGGTGGCTGAGGATCGATC [AMX(399)_G6] | 11.1 s
TCCCATCGATCTGTGGTGGTTTTGTGGTTTGGGTGGCTGAGGATCGATC [AMX(399)_D10] | 10.7 s
TCCCATCGGTCCGGGGTAATTTACTGGGTCGGGTGGCTGAGGATCGATC [AMX(398)_A8] | 11.2 s
TCCCGAGTGATCCGGGGTGTTTTTTTGGGTTGGGTGGCTGAGGATCGATC [AMX(398)_E3] | 11.1 s
TCCCGATCGCTGTCCTAGGATGGGTAGGGTGGTGGCTGAGGATCGATC [AMX(399)_D2] | 12.5 s
TCCCGATCGTAGTCCTGGTATTGTTGGTCTGGGTGGCTGAGGATCGATC [AMX(398)_F12] | 10.8 s
TCCCGGATCCTCGTGGGTATTGTTGGGTTGGGTGGCTGAGGATCGATC [AMX(399)_G12] | 13.4 s
TCCCGGATCTGTGGTAGGTTTGTTGGGTTGGGTGGCTGAGGATCGATC [AMX(398)_E12] | 10.7 s
TCCCGGTTGTCGATTCTGGTATTGTTGGGCTGGGTGGCTGAGGATCGATC [AMX(399)_H7] | 10.9 s
TCCCGTAATCGAGCCTGGTATTGTTGGTCTGGGTGGCTGAGGATCGATC [AMX(398)_B2] | 11 s
TCCCGTAATCGAGCTTGGTATTGTTGGTCTGGGTGGCTGAGGATCGATC [AMX(399)_B3] | 10.9 s
TCCCGTTCGAGTCCTGGTGTTTTATTGGCCTGGGTGGCTGAGGATCGATC [AMX(399)_D5] | 10.5 s
TCCCTAGATCGGGTCCTGGTAGTGTTTCTGGGTGGCTGAGGATCGATC [AMX(399)_F5] | 11 s
TCCCTATCGATTGCTCCTAGGATGGGTAGGGTGGTGGCTGAGGATCGATC [AMX(399)_A2] | 11.3 s
TCCCTATGGATCCGGGGTACGTTAGTTCTGGGTGGCTGAGGATCGATC [AMX(398)_H6] | 11 s
TCCCTATGGATTCGGGGTACGTTAGTTCTGGGTGGCTGAGGATCGATC [AMX(399)_F11] | 11.2 s
TCCCTGGAGATCCGGGGTAGTATACTGGTTTGGGTGGCTGAGGATCGATC [AMX(398)_A12] | 12 s
TCCCTGTCGTTCCGTGGTGTTTTTATGGGCTGGGTGGCTGAGGATCGATC [AMX(398)_G6] | 10.7 s
TCCCTTGTCGATTCTGGTATGTTTTGGTCCGGGTGGCTGAGGATCGATC [AMX(398)_D7] | 11.4 s
TCCTGTCGATCGGTACGTTTTCGTTTCTGGGTGGCTGAGGATCGATC [AMX(398)_C11] | 11.3 s
TCTCATTCGTTCCGGGGTATTTAGTGGGTCGGGTGGCTGAGGATCGATC [AMX(399)_C10] | 10.9 s

Same assay, conditions: PT at 10 uM, parent 300 s; protein in an extract; single-stranded DNA

Sequence | functional effect of the aptamer
ACTGCCTAGGTTGGGTAGGGTGGT [Minimer 6] | 12.2 s
GGCGATACTGCTTCGCAGGGTGGTGGCTGAGGATCGCC [Minimer 12] | 10.3 s
GGTAGGGTGGTGG [Minimer 4] | 11.4 s

Same assay, conditions: PT at 10 uM, parent 300 s; protein in an extract; single-stranded DNA; variant of AMX(398)_C8 (ARC2027)

Sequence | functional effect of the aptamer
GGCCGATCAGGCTGCTGAGGATCGGCC [Minimer 10] | 11 s
GGCGATACTGCCCAGGTTGGGCAGGGTGGTGGCTGAGGATCGCC [Minimer 9] | 10.6 s
GGCGATACTGCCTTTGGTAGGGTGGTGGCTGAGGATCGCC [Minimer 8] | 10.1 s

Same assay, conditions: PT at 10 uM; name printed AMX(453)_38; protein in an extract; single-stranded DNA

Sequence | functional effect of the aptamer
TCCTATGATCGAATGACTAAGGGGTGGGGTGGGTGGCTGAGGATCGATC [AMX(453)_E8] | 13.1 s

Same assay, conditions: PT at 10 uM; protein in an extract; single-stranded DNA

Sequence | functional effect of the aptamer
ACTGCCTAGGTTGGGTAGGGCGGTGGCAGT [ARC2169.5] | 12.8 s
ACTGCCTAGGTTGGGTAGTGTGGTGGCAGT [ARC2169.3] | 11 s
CCCTTGGTATTGTTGGTCTGGGTGGCTGAGCGG [Minimer 1] | 11.5 s
TCCCATCGAGCCGGGGTATGATTATGGGTGGGGTGGCTGAGGATCGATC [AMX(453)_B8] | 11.9 s
TCCCATCGATTCGGGGTTTTTTAGTGGTATGGGTGGCTGAGGATCGATC [AMX(454)_D5] | 13 s
TCCCATCGATTTGGGGTAGTTCTATTGGGTTGGGTGGCTGAGGATCGATC [AMX(454)_D6] | 11.4 s
TCCCATTAGGTCCGTATACTGGTGAGGTTGGGTGGCTGAGGATCGATC [AMX(454)_H7] | 12.1 s
TCCCGATCGGTCTGGGGTGTGTTCATGGTTTGGGTGGCTGAGGATCGATC [AMX(453)_B12] | 12.8 s
TCCCGATCGTTCCGTGGGGTAGTGTTGGTTGGGGTGGCTGAGGATCGATC [AMX(454)_G2] | 15.6 s
TCCCGATTGATCTGAGGGGTATTGTTGGCGTGGGTGGCTGAGGATCGATC [AMX(453)_D12] | 12.7 s
TCCCGGATCGTTTTGCTTCAAAGGTTGGGTTGGGTGGCTGAGGATCGATC [AMX(454)_B7] | 12.2 s
TCCCGGGTCGTATCCGTTTGTGGGTGGTCTGGGTGGCTGAGGATCGATC [AMX(453)_E10] | 11.8 s
TCCCGTAATCGAGTCTGGTATTGTTGGTCTGGGTGGCTGAGGATCGATC [AMX(453)_E4] | 15.9 s
TCCCGTAATTGAGCCTGGTATTGTTGGTCTGGGTGGCTGAGGATCGATC [AMX(453)_E12] | 12.2 s
TCCCGTATCGAGCTTGGTATTGTTGGTCTGGGTGGCTGAGGATCGATC [AMX(453)_G11] | 12.2 s
TCCCTATGGATTCGGGGTACGTTAGTGGTCTGGGTGGCTGAGGATCGATC [AMX(454)_G6] | 12.5 s
TCCCTCGATCCGGGGTGTCTTTCGTGGGCTGGGTGGCTGAGGATCGATC [AMX(454)_D12] | 12 s
TCCCTCGATCTAAGGTGTTTATTATGGTGTGGGTGGCTGAGGATCGATC [AMX(454)_F7] | 12.7 s
TCCCTGTTGTTCCGGGGTGGTTTAATGGTTTGGGTGGCTGAGGATCGATC [AMX(454)_H6] | 11.5 s
TCCCTTTTGACCTGCAAGAACGGTTGGTGTGGGTGGCTGAGGATCGATC [AMX(453)_H11] | 15.6 s

Same assay, conditions: PT at 10 uM; protein in an extract; single-stranded DNA; variant of AMX(398)_A4

Sequence | functional effect of the aptamer
CCGCCTGGTATTGTTGGTCTGGGTGGCTGAGGCGG [Minimer 2] | 12.2 s

Target: prothrombin (Homo sapiens) (UniProt P00734)
Assay: filter binding
Details: 50 nM prothrombin; purified native protein; protein details: Athens Research; single-stranded DNA

Sequence | binding signal
TCCCAGGACCGATCTTGGTATTGTTGGTGGGGGTGGCTGAGGATCGATC [AMX(399)_G1] | 2.44 % bound
TCCCATCGAGCCGGGGATGGTTTGTTGGAGGGGTGGCTGAGGATCGATC [AMX(398)_B9] | 2.16 % bound
TCCCATCGATCCGCGGTACTTTCGTGGCTTGGGTGGCTGAGGATCGATC [AMX(399)_E8] | 4.37 % bound
TCCCATGTGTTAGATCCGTGTGGTTGGACTGGGTGGCTGAGGATCGATC [AMX(398)_C3] | 3.04 % bound
TCCCGACTTTAGATCCGTGTTGGATGGCCTGGGTGGCTGAGGATCGATC [AMX(399)_H2] | 2.73 % bound
TCCCGAGAGATTCAAAAGGGACTGGGCGGTTGGGTGGCTGAGGATCGATC [AMX(399)_H4] | 3.66 % bound
TCCCGCTCGATTTCGAAGAATGGTTGGTTTGGGTGGCTGAGGATCGATC [AMX(398)_B11] | 2.08 % bound
TCCCGGAGATCCGAGGTGTTTTATTGGTTTGGGTGGCTGAGGATCGATC [AMX(399)_H9] | 3.16 % bound
TCCCGGTCGAGACTCGGAGTATGGCAGGGTGGGTGGCTGAGGATCGATC [AMX(398)_E2] | 2.62 % bound

Tested on: thrombin (alpha-thrombin) (Homo sapiens)
Assay: filter binding
Details: 10 nM thrombin, DPBS Ca Mg, BSA; purified native protein; protein details: Enzyme Research Labs; single-stranded DNA

Sequence | binding signal
TCCCACGCATCGATCCTATATGGGTGGCATGGGGTGGCTGAGGATCGATC [AMX(395)_A5] | 3.29 % bound

Same assay, conditions: 10 nM thrombin; purified native protein; protein details: Enzyme Research Labs; single-stranded DNA

Sequence | binding signal
TCCCAAGCGATCTGTAAGGGATGGGGTTGCGGGTGGCTGAGGATCGATC [AMX(395)_C3] | 3.57 % bound
TCCCAGGACCGATCTTGGTATTGTTGGTGGGGGTGGCTGAGGATCGATC [AMX(399)_G1] | 4.89 % bound
TCCCATCGAGCCGGGGATGGTTTGTTGGAGGGGTGGCTGAGGATCGATC [AMX(398)_B9] | 3.03 % bound
TCCCATCGATCCGCGGTACTTTCGTGGCTTGGGTGGCTGAGGATCGATC [AMX(399)_E8] | 4.31 % bound
TCCCGCAGTATCGGTCTGGTTGGTTGGATGGGGTGGCTGAGGATCGATC [AMX(395)_H10] | 2.8 % bound
TCCCGGAGATCCGAGGTGTTTTATTGGTTTGGGTGGCTGAGGATCGATC [AMX(399)_H9] | 3.86 % bound
TCCCGGTCGAGACTCGGAGTATGGCAGGGTGGGTGGCTGAGGATCGATC [AMX(398)_E2] | 3.84 % bound

Same assay, conditions: 2'-OMe A17, rest DNA; NB, non binder; purified native protein; protein details: Enzyme Research Labs; synthetic backbone; variant of ARC2169

Sequence | binding result
ACTGCCTAGGTTGGGTAGGGTGGTGGCAGT [ARC2629] | no binding

Same assay, conditions: 2'-OMe G15, rest DNA; NB, non binder; purified native protein; protein details: Enzyme Research Labs; synthetic backbone; variant of ARC2169

Sequence | binding result
ACTGCCTAGGTTGGGTAGGGTGGTGGCAGT [ARC2627] | no binding

Same assay, conditions: 2'-OMe G20, rest DNA; NB, non binder; purified native protein; protein details: Enzyme Research Labs; synthetic backbone; variant of ARC2169

Sequence | binding result
ACTGCCTAGGTTGGGTAGGGTGGTGGCAGT [ARC2632] | no binding
